PubChem BioAssay AID504786 – Drosophila RNAi Screening Center | 2011

- Purpose: 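Knock-downs reducing HIF reporter induction by the iron chelator DFO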 (primary screen)
- Cell system: Drosophila S2 cells with a stable HIF luciferase reporter
- Reagents: long dsRNA against Drosophila genes, about 0.2 µg dsRNA per well of a 384-well plate
- Timing: three days of knock-down, then 20 h of DFO before reading
- Conditions: desferrioxamine (DFO) at 100 µM, an iron chelator that mimics hypoxia, for 20 h
- Measurement: 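HIF reporter luminescence in cells given 100 µM DFO for 20 h, using the mouse ldh-a hypoxia-response element, scored as per-plate z-scores; higher means greater loss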
- Reading the numbers: z-score: higher = stronger loss of HIF reporter signal
The screen tested about 21,000 reagents; this is an unselected part of those that have a named target and a result. 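Primary screen; positive scores mean lost reporter signal, so the sign may be inverted from the usual convention.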 Names joined by + are all predicted targets of the reagent. Not all columns of the deposit are shown.

NPF (neuropeptide F) [DRSC17019] showed z-score, replicate 1 = -0.8.
With knock-down of CG42534 [DRSC14722], the record shows z-score, replicate 1 = -0.3.
For CG42534 [DRSC14759], the values are z-score, replicate 1 = -0.1.
CG42534 [DRSC16072] showed z-score, replicate 1 = -0.5.
Against Arf6 (ADP ribosylation factor 6) [DRSC05921], the values are z-score, replicate 1 = -0.4.
For CG17364 [DRSC10269], the values are z-score, replicate 1 = -0.2.
For CG17364 [DRSC10270], the entry reads z-score, replicate 1 = -0.1.
Trf4-2 (Topoisomerase related function 4-2) [DRSC15237] showed z-score, replicate 1 = -0.1.
Depletion of CG10979 [DRSC12153] came out at: z-score, replicate 1 = -0.2.
With knock-down of Lgr1 (Leucine-rich repeat-containing G protein-coupled receptor 1) [DRSC16675], the screen gave z-score, replicate 1 = -0.5.
Silencing of CG13511 [DRSC04153] came out at: z-score, replicate 1 = -0.4.
Against CG7300 [DRSC03044], the entry reads z-score, replicate 1 = -0.4.
TM9SF4 (Transmembrane 9 superfamily protein member 4) [DRSC01888] scored z-score, replicate 1 = -0.5.
TM9SF4 (Transmembrane 9 superfamily protein member 4) [DRSC02537] gave z-score, replicate 1 = -0.3.
CG7407 [DRSC11824] gave z-score, replicate 1 = -0.4.
Knock-down of Idgf4 (Imaginal disc growth factor 4) [DRSC18675] gave: z-score, replicate 1 = -0.1.
For phol (pleiohomeotic like) [DRSC10367], the values are z-score, replicate 1 = -0.5.
Knock-down of CG42260 [DRSC03953] gave: z-score, replicate 1 = -0.6.
Depletion of CG42260 [DRSC04172] came out at: z-score, replicate 1 = -0.3.
Silencing of CG42260 [DRSC04385] resulted in: z-score, replicate 1 = -0.4.
With knock-down of Mec2 [DRSC20054], the record shows z-score, replicate 1 = -0.2.
Tsp42Ei (Tetraspanin 42Ei) [DRSC06189] gave z-score, replicate 1 = -0.4.
Silencing of CG32576 + UQCR-14 [DRSC19870] gave: z-score, replicate 1 = 0.8.
Against Nepl20 (Neprilysin-like 20) [DRSC14878], the entry reads z-score, replicate 1 = -0.3.
Silencing of CG6432 [DRSC16039] resulted in: z-score, replicate 1 = -0.3.

2 entries from above, ordered by “z-score, replicate 1”, descending.
TM9SF4 (Transmembrane 9 superfamily protein member 4) [DRSC02537] → z-score, replicate 1 = -0.3
CG7407 [DRSC11824] → z-score, replicate 1 = -0.4

More reagents:
Kif3C (Kinesin family member 3C) [DRSC17209] showed z-score, replicate 1 = -0.3.
After knock-down of Kif3C (Kinesin family member 3C) [DRSC17210] the results were z-score, replicate 1 = -0.3.
Silencing of CG5348 [DRSC06933] gave: z-score, replicate 1 = -0.3.
Silencing of CaBP1 (calcium-binding protein 1) [DRSC01984] resulted in: z-score, replicate 1 = -0.3.
Silencing of CG11029 [DRSC02119] came out at: z-score, replicate 1 = -0.2.
Knock-down of CG17127 [DRSC02581] came out at: z-score, replicate 1 = -0.3.
With knock-down of Snap25 (Synaptosomal-associated protein 25kDa) [DRSC21228], the record shows z-score, replicate 1 = -0.2.
Snap25 (Synaptosomal-associated protein 25kDa) [DRSC21236] gave z-score, replicate 1 = 0.1.
With knock-down of CG5882 [DRSC15907], the record shows z-score, replicate 1 = -0.2.
With knock-down of Tdg (Thymine DNA glycosylase) [DRSC17119], the screen gave z-score, replicate 1 = -0.2.
After knock-down of Tdg (Thymine DNA glycosylase) [DRSC17169], the record shows z-score, replicate 1 = -0.3.
Silencing of Tsp2A (Tetraspanin 2A) [DRSC18584] gave: z-score, replicate 1 = -0.3.
With knock-down of Rh7 (Rhodopsin 7) [DRSC10529] the results were z-score, replicate 1 = -0.3.
Septin5 (Septin 5) [DRSC06843] scored z-score, replicate 1 = -0.3.
Against beat-IIa (beaten path IIa) [DRSC14813], the values are z-score, replicate 1 = -0.3.
beat-IIa (beaten path IIa) [DRSC14814] gave z-score, replicate 1 = 0.
